Data: publication PMC2779590
These are yes or no findings as the source states them, for the method shown.

The chains behind the UniProt entries cited, without tags or fusion partners.
UniProt P05556: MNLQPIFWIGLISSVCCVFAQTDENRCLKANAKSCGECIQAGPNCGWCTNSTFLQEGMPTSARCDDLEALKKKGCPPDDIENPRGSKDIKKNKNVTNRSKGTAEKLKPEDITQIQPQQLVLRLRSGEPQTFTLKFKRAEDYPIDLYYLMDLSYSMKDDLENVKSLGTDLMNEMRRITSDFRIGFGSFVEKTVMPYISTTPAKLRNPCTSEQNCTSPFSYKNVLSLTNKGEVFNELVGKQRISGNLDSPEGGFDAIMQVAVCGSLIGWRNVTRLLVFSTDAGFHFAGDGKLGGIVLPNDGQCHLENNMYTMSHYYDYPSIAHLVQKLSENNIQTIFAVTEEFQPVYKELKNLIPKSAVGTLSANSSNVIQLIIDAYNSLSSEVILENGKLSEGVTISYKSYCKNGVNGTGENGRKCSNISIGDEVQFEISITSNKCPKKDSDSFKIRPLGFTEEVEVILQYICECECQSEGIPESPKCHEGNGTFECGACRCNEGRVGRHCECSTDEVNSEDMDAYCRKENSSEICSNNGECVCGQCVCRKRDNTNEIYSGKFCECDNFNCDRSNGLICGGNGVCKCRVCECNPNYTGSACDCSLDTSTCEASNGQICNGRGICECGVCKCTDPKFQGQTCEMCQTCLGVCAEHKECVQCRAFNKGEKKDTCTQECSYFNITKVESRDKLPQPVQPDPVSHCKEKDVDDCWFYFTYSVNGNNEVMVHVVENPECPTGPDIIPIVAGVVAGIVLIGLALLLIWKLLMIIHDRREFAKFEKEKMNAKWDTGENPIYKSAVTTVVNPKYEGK
UniProt B5Z6P9: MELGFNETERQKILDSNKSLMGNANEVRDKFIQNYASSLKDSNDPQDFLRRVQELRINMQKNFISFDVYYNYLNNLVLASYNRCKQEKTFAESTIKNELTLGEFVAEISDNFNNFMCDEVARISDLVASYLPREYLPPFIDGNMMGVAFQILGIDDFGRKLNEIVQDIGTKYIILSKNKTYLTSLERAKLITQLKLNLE

Target: β1 integrin on GE11β cells (human) (UniProt P05556)
Assay: flow cytometry on cells; only the binder purified

Substance: GST-CagZ (HP0526) (from UniProt B5Z6P9 1-199)
- binding: no binding (tested: 30mg/1×10^6 cells)
